Hit rate of the full screen: of about 300,000 compounds, about 5,400 (1.8%) were called active. Inconclusive results, whose numbers are uncertain, are shown with a selection of clear calls. The call rests on the fitted dose curve; tested in HEK293 cells. Where the call is inconclusive, the potency comes from a doubtful curve fit.
Assay: qHTS for inhibitors of binding or entry into cells for Marburg Virus
Conditions: Marburg virus pseudotyped entry inhibition, cell reporter; activity change, negative = inhibition: at 37.8 µM (top of the series) unless noted
On the % scale 0 is the no-effect control and ±100 the full control effect; potency means the concentration at half of the fitted maximal effect.

| SMILES | Potency | activity change, negative = inhibition |
| --- | --- | --- |
| CC(C)(C)C(=O)N1CCN(c2ccc([N+](=O)[O-])c(NCC3CCCO3)c2)CC1 (stereo not drawn) | inconclusive: 29.1 µM [inhibitor, single point] |  |
| COc1cc2c(cc1OC)C(c1cc(OC)c(OC)c(OC)c1)NCC2 (stereo not drawn) | inconclusive: 0.103 µM [inhibitor, full curve, poor fit] |  |
| Cc1ccc(C)c(N2CCN(C(c3ccccc3)c3nnc(-c4ccccc4)o3)CC2)c1 (stereo not drawn) | inconclusive: 35.5 µM [inhibitor, single point] |  |
| CCc1cccc(C)c1NC(=O)C(NS(=O)(=O)c1ccc2c(c1)CCC(=O)N2)c1ccccc1 (stereo not drawn) |  | inactive: -0.367% [at 46.1 µM] |
| Cc1cccc(C)c1OCC(O)CN(Cc1ccccc1O)C1CCCCC1 (stereo not drawn) | inconclusive: 10 µM [inhibitor, partial curve, poor fit] |  |
| COc1ccc(CN2CC(=O)N(c3ccccc3OC)C2=S)cc1OC |  | inactive: -9.77% [at 46.1 µM] |
| COc1ccc(-n2cc(-c3ccccc3)c3c(N4CCOCC4)ncnc32)cc1 | inconclusive: 35.5 µM [inhibitor, single point] |  |
| Cc1ccccc1Cn1c(C)nc2ccccc21 | inconclusive: 1.12 µM [inhibitor, full curve, poor fit] |  |
| Cc1ccc(S(=O)(=O)/N=C(/NNC(=O)c2cccc(Cl)c2)c2ccccc2)cc1 | inconclusive: 1.58 µM [activator, partial curve, poor fit] |  |
| COC(=O)c1[nH]c(C)c(/C(O)=C2\C(=O)C(=O)N(CCN3CCOCC3)C2c2cccs2)c1C (stereo not drawn) | inactive |  |
| CCOc1ccc(NS(=O)(=O)c2cnc(Cl)c(Cl)c2)cc1 | inconclusive: 35.5 µM [inhibitor, single point] |  |
| CCOc1ccc(-n2c(C)c(C(=O)O)c3cc(OC)ccc32)cc1 | active: 6.31 µM |  |
| CCCNC(=O)c1cc(-c2ccc3c(c2)OCO3)on1 | inconclusive: 4.47 µM [activator, single point] |  |
| CCOC(=O)c1cnc2ccc(OCC)cc2c1NCCc1ccc(OC)c(OC)c1 | inconclusive: 35.5 µM [inhibitor, single point] |  |
| CC(C)COc1ccc(C(=O)N(Cc2cccc(F)c2)C2CCS(=O)(=O)C2)cc1 (stereo not drawn) | inconclusive: 35.5 µM [inhibitor, partial curve, poor fit] |  |
| COc1cc(-c2nnc(NC(=O)C3=COCCO3)o2)cc(OC)c1OC | inconclusive: 35.5 µM [activator, single point] |  |
| C=CCn1c(-c2cccc3ccccc23)n[nH]c1=S | inconclusive: 6.51 µM [inhibitor, single point] |  |
| Cc1ccc(C(=O)C2CCN(CC(=O)Nc3ccc(N(C)C)cc3)CC2)cc1 | inconclusive: 25.9 µM [inhibitor, single point] |  |
| CCOC(=O)C1=C(CSc2nc3c(cc2C#N)CN(C)CC3)OC(N)=C(C#N)C1c1ccncc1 (stereo not drawn) | inconclusive: 2.91 µM [inhibitor, partial curve, poor fit] |  |
| CC(OC(=O)Nc1cccc(Cl)c1)C(=O)O (stereo not drawn) |  | inactive: 12.2% [at 46.1 µM] |
| CC(C)CC(=O)n1nc(-c2ccco2)nc1NCc1ccc(Cl)cc1 |  | inactive: -1.21% [at 46.1 µM] |
| COc1ccc(NC(=O)CSc2nnc(C3CCCCC3)n2N)cc1 |  | inactive: -5.35% [at 46.1 µM] |
| Cc1cccc(C(=O)Nc2c(C(=O)N(C)C)cnn2-c2ccccc2)c1 | inconclusive: 6.31 µM [inhibitor, single point] |  |

| SMILES | Potency | activity change, negative = inhibition |
| --- | --- | --- |
| O=C(CNC(=O)c1ccccc1O)N/N=C/c1cc(Br)ccc1OC(=O)/C=C/c1ccco1 | inconclusive: 8.91 µM [inhibitor, partial curve, poor fit] |  |
| CC(C)OC(=O)c1ccc(NC(=O)CSc2nc(-c3cccs3)cc(C(F)(F)F)n2)cc1 |  | inactive: -16.5% [at 46.1 µM] |
| CN(Cc1ccon1)C(=O)CC1C(=O)NCCN1Cc1ccc(F)c(F)c1 (stereo not drawn) | inconclusive: 5.62 µM [activator, single point] |  |
| O=C(NCc1ccco1)C(Cc1ccccc1)N1C(=O)C2C3C=CC(C3)C2C1=O (stereo not drawn) | inconclusive: 35.5 µM [inhibitor, partial curve, poor fit] |  |
| CCN(CC)c1ccc(S(=O)(=O)N(CC)CC)cc1NC(=O)C1CCCC1 | inconclusive: 12.6 µM [inhibitor, partial curve, poor fit] |  |
| CCN(CC)CCCn1c2c(c(SCC(=O)Nc3ccc(OC(F)(F)F)cc3)nc1=O)CCC2 | inconclusive: 35.5 µM [inhibitor, single point] |  |
| O=C(NCCCN1CCN(CCCNC(=O)c2cccc([N+](=O)[O-])c2)CC1)c1cccc([N+](=O)[O-])c1 | inconclusive: 0.112 µM [inhibitor, full curve, poor fit] |  |
| COc1ccc(-c2nnc(Nc3ccc(OC)c(C(=O)N4CCCCC4)c3)c3ccccc23)cc1 | inconclusive: 0.708 µM [activator, full curve] |  |
| CC(C)c1ccc(NC(=S)Nc2ccc3cn[nH]c3c2)cc1 | inconclusive: 10 µM [inhibitor, partial curve, poor fit] |  |
| CC(/C=N/Nc1nc2ccccc2[nH]1)=C\c1ccccc1 | active: 7.3 µM |  |
| O=C(Nc1cccc(-c2ccc(N3CCOCC3)nn2)c1)c1ccccc1 |  | inactive: -2.57% [at 46.1 µM] |
| Cc1ccc(C)c(-c2nnc(NC(=O)c3ccco3)o2)c1 | inconclusive: 12.6 µM [inhibitor, single point] |  |
| CCOc1ccc(C(=O)COC(=O)c2cccc(-n3cnnn3)c2)cc1 |  | inactive: 17.3% |
| COc1ccc(N2CCN(c3ccc(N4C(=O)COCC4=O)cc3[N+](=O)[O-])CC2)cc1 | inconclusive: 1.12 µM [activator, single point] |  |
| COC(=O)c1cc2sc(Cl)cc2n1CC(=O)N1CCCc2ccccc21 | inconclusive: 16.4 µM [inhibitor, partial curve, poor fit] |  |
| COc1ccc(/C=N/NC(=O)CCSc2nc3ccccc3s2)cc1OC |  | inactive: -14.5% |
| CC1(C)NC(=O)N(CC(O)CN(c2ccccc2)S(=O)(=O)c2ccccc2[N+](=O)[O-])C1=O (stereo not drawn) |  | inactive: -1.67% [at 46.1 µM] |
| CCOC(=O)CNC(=O)c1cnn2cccnc12 |  | inactive: 14.3% [at 46.1 µM] |
| Cc1ccc2c(c1)-c1c(cnc3cc(-c4ccc(Cl)cc4)nn13)CO2 |  | inactive: -16.1% [at 46.1 µM] |
| Cc1ccc(-n2ncc(N(C)C)c(Cl)c2=O)cc1 | inconclusive: 7.08 µM [inhibitor, full curve, poor fit] |  |
| CCCC1(C)NC(=O)c2ccccc2O1 (stereo not drawn) |  | inactive: 0.283% [at 46.1 µM] |
| COc1cc(C(=O)NC2CCCCC2)ccc1OC1CCN(C(C)=O)CC1 |  | inactive: 0.685% [at 46.1 µM] |
| Cc1ccc(O[C@@H]2[C@H](O)CO[C@H]2C=CC#Cc2ccc(C(C)(C)C)cc2)cc1 |  | inactive: -34.7% [at 14.2 µM] |

Reformatted: entries from further up.
SMILES	Potency	activity change, negative = inhibition
COc1ccc(-c2nnc(Nc3ccc(OC)c(C(=O)N4CCCCC4)c3)c3ccccc23)cc1	inconclusive: 0.708 µM [activator, full curve]	
COC(=O)c1cc2sc(Cl)cc2n1CC(=O)N1CCCc2ccccc21	inconclusive: 16.4 µM [inhibitor, partial curve, poor fit]	
CCOC(=O)CNC(=O)c1cnn2cccnc12		inactive: 14.3% [at 46.1 µM]

Going on with the list:

| SMILES | Potency | activity change, negative = inhibition |
| --- | --- | --- |
| CCN1C(=O)/C(=C2/C=Cc3cc(C)ccc3N2CC)N(C)C1=S |  | inactive: 4.82% |
| CC1(C)CC(N=Cc2c(O)n(Cc3ccc4c(c3)OCO4)c(=O)c3ccccc23)CC(C)(C)N1 | inconclusive: 10 µM [inhibitor, partial curve, poor fit] |  |
| CCOC(=O)N/N=C1/C[C@@H](O)[C@@H](O)[C@@H]2[C@@H]3C(=O)N(C4CCCCC4)C(=O)[C@H]3CC[C@@H]12 |  | inactive: 19.7% [at 14.2 µM] |
| O=C(Nc1ccc2c(c1)OCCO2)c1cc2sccc2n1Cc1ccccc1 | inconclusive: 35.5 µM [inhibitor, single point] |  |
| COc1ccccc1C(=O)N=c1sc2c(C)ccc(OC)c2n1C | inconclusive: 28.2 µM [inhibitor, single point] |  |
| CCn1c(CNC(=O)c2ccc(OC)cc2)nnc1SCC(=O)Nc1ccc(F)cc1 | inconclusive: 2.82 µM [activator, partial curve, poor fit] |  |
| CCc1ccc(C(=O)c2cn(CC(=O)Nc3ccc(F)cc3)c3ccc(F)cc3c2=O)cc1 | inconclusive: 10 µM [inhibitor, partial curve, poor fit] |  |
| O=C(Nc1ccc(NC(=O)c2cccnc2)cc1)c1ccccc1 |  | inactive: 5.56% [at 46.1 µM] |
| CCOc1ccc(-c2n[nH]c(C(=O)NN)c2C)cc1 | inconclusive: 0.366 µM [activator, full curve] |  |
| Cc1cccc(Cn2nc(C(C)(C)C)cc2C(=O)N2CCOCC2)c1 |  | inactive: -6.07% |
| CCC(C(=O)Nc1ccccc1Cl)n1nc(C)c2c(C)n(-c3ccccc3)nc2c1=O (stereo not drawn) | inconclusive: 35.5 µM [inhibitor, partial curve, poor fit] |  |
| CCCCNc1cc(Cl)nc(N)n1 |  | inactive: -13.6% [at 46.1 µM] |
| CCn1c(SCC(=O)n2c(C)c(C)c3ccccc32)nnc1-c1ccco1 |  | inactive: -4.17% |
| N#Cc1cc2ccccc2nc1SCC(=O)Nc1ccc(S(=O)(=O)N2CCCC2)cc1 | inconclusive: 29.1 µM [inhibitor, single point] |  |
| COc1ccccc1C(=O)C1CCCN(C(=O)Nc2ccccc2F)C1 (stereo not drawn) | inconclusive: 7.94 µM [activator, partial curve, poor fit] |  |
| Cc1ccc(/C=C/C(=O)Nc2nccs2)o1 | inconclusive: 0.366 µM [activator, partial curve, poor fit] |  |
| COc1ccc(NCc2ccc3c(c2)OCO3)cc1Cl |  | inactive: 12.4% |
| Cc1nc2ccc(-c3nc4ccc(N)cc4[nH]3)cc2[nH]1 | inconclusive: 11.2 µM [inhibitor, partial curve, poor fit] |  |
| COc1cc(N=Nc2cccc(S(N)(=O)=O)c2)c2ccccc2c1N |  | inactive: 9.3% [at 46.1 µM] |
| CCOc1ccc(C(=O)NCC(=O)NCC(c2ccc(OC)cc2)N2CCCC2)cc1 (stereo not drawn) | inconclusive: 1.26 µM [inhibitor, full curve, poor fit] |  |
| Cc1cc(C)c(NC(=O)CNC(=O)COC(=O)CNC(=O)c2ccc(Cl)cc2Cl)c(C)c1 | inconclusive: 0.282 µM [activator, partial curve, poor fit] |  |
| Cc1cccc(NC(=O)NNC(=O)COc2ccc([N+](=O)[O-])cc2)c1C |  | inactive: -9.46% |
